Assay [1] concerns the target T1, GFP-SEPT12S198A (human) (UniProt Q8IYM1).
T1 sequence: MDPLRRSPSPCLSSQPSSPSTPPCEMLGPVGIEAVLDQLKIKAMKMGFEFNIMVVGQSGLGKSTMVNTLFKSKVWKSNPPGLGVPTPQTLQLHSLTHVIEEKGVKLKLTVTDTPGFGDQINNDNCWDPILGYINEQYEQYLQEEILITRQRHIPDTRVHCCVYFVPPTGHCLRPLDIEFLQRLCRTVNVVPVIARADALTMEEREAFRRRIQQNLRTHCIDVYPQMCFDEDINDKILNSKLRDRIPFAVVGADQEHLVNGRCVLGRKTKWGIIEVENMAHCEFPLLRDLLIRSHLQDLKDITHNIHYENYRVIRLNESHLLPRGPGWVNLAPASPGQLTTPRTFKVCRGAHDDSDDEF
Nature of the assay: co-IP; NT2/D1 cells co-transfected with Myc-SEPT6, FLAG-SEPT7 and a GFP-SEPT12 plasmid; lysates immunoprecipitated with anti-GFP on Dynabeads protein G, 4°C overnight; washed with 100 mM Tris, 150 mM NaCl, 2 mM EDTA, 0.5% Tween-20, 0.01% NP-40; blots with anti-SEPT2, anti-Myc, anti-FLAG, anti-GFP.

Assay [2] addresses T2, GFP-SEPT12WT (human) (UniProt Q8IYM1).
T2 sequence: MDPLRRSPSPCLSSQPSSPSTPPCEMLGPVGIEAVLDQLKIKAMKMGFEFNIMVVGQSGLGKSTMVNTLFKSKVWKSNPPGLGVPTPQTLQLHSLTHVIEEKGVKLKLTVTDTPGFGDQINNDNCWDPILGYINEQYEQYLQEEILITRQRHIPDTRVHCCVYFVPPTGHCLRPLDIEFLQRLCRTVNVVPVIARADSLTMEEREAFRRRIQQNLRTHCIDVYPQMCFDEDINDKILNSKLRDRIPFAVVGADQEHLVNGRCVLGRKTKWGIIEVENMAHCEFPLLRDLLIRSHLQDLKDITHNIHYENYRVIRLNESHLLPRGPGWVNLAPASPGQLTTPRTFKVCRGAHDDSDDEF
The assay is described as above.

Assay [3] addresses T2, GFP-SEPT12WT (human). Nature of the assay: co-IP; NT2/D1 cells co-transfected with HA-SEPT4, Myc-SEPT6, FLAG-SEPT7 and a GFP-SEPT12 plasmid; lysates immunoprecipitated with anti-GFP; blots with anti-HA, anti-Myc, anti-FLAG, anti-GFP.
Assay [4] concerns the target T3, His-tagged SEPT7 recombinant protein (UniProt Q16181).
T3 sequence: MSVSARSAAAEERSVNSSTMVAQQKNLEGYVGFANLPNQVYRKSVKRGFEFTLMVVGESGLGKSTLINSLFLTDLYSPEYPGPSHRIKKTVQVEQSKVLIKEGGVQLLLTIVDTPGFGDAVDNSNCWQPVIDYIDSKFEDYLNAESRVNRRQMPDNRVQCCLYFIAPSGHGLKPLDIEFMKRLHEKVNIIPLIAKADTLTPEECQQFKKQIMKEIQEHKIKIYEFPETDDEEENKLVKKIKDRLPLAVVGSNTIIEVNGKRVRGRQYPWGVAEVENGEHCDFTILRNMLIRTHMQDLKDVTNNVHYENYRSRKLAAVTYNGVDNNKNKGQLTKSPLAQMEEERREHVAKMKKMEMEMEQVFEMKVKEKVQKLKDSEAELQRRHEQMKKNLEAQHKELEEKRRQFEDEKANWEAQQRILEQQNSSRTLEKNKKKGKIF
Nature of the assay: pull-down; 5 μg His-SEPT7 on 30 μl Ni-NTA beads, 5 mM imidazole, incubated with testicular lysate of WT or SEPT12^S196E/S196E mice overnight at 4°C; washed three times; blots for SEPT12, SEPT2, SEPT6 and His; only the target purified.

Assay [5] addresses T4, SEPT2 (endogenous, mouse testis) (mouse (endogenous in testis)), P42208.
T4 chain: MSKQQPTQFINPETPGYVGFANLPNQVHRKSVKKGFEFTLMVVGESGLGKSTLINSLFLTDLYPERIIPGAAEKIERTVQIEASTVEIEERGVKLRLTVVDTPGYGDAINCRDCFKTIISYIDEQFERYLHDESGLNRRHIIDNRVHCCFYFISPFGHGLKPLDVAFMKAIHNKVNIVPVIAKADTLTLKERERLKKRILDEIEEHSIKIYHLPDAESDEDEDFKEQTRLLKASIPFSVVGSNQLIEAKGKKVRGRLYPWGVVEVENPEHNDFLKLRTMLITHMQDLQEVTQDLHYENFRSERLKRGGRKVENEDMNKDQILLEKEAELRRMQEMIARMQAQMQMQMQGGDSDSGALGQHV
Nature of the assay: co-IP; testicular lysates of WT and SEPT12 KI mice immunoprecipitated with anti-SEPT2; blots with anti-SEPT2, anti-SEPT6, anti-SEPT7. Conditions: remark: other sources report otherwise.

Assay [6] has as its target T5, SEPT2 (endogenous, mouse testis) (mouse (endogenous in testis)) (UniProt P42208).
T5 sequence: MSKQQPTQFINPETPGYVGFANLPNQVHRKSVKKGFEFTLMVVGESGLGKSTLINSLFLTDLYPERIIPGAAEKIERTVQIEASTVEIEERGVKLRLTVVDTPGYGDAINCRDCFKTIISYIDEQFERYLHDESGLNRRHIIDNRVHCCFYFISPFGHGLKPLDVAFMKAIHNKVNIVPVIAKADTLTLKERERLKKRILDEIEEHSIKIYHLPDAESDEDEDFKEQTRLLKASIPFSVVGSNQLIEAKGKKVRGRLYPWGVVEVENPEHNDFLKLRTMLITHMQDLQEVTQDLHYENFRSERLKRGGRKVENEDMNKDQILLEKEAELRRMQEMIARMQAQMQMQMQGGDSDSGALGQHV
Described as above.

Results are given in words; binding and its absence hold for the method and conditions named. Binding seen in cells or lysates may run through a third protein. Some binding calls cover weakened binding; strength is not graded here. For part of these data: Where a sequence is shown, tags or fusion partners need not be part of it.

B1: Myc-SEPT6 (protein, UniProt Q14141 1-434)
chain: MAATDIARQVGEGCRTVPLAGHVGFDSLPDQLVNKSVSQGFCFNILCVGETGLGKSTLMDTLFNTKFEGEPATHTQPGVQLQSNTYDLQESNVRLKLTIVSTVGFGDQINKEDSYKPIVEFIDAQFEAYLQEELKIRRVLHTYHDSRIHVCLYFIAPTGHSLKSLDLVTMKKLDSKVNIIPIIAKADAISKSELTKFKIKITSELVSNGVQIYQFPTDDESVAEINGTMNAHLPFAVIGSTEELKIGNKMMRARQYPWGTVQVENEAHCDFVKLREMLIRVNMEDLREQTHTRHYELYRRCKLEEMGFKDTDPDSKPFSLQETYEAKRNEFLGELQKKEEEMRQMFVQRVKEKEAELKEAEKELHEKFDRLKKLHQDEKKKLEDKKKSLDDEVNAFKQRKTAAELLQSQGSQAGGSQTLKRDKEKKNNPWLCTE
As to B1, the binding result in assay [1], in assay [2] and in assay [3] was “binds” throughout.

B2: SEPT6 (endogenous, mouse testis) (protein, UniProt Q9R1T4 1-434)
chain: MAAADIARQVGEDCRTVPLAGHVGFDSLPDQLVNKSVSQGFCFNILCVGETGLGKSTLMDTLFNTKFEGEPATHTQPGVQLQSNTYDLQESNVGLKLTIVSTVGFGDQINKEDSYKPIVEFIDAQFEAYLQEELKIRRVLHSYHDSRIHVCLYFIAPTGHSLKSLDLVTMKKLDSKVNIIPVIAKSDAISKSELAKFKIKITSELVSNGVQIYQFPTDDESVSEINGTMNAHLPFAVVGSTEEVKIGNKMMRARQYPWGTVQVENEAHCDFVKLREMLIRVNMEDLREQTHARHYELYRRCKLEEMGFKDTDPDSKPFSLQETYEAKRNEFLGELQKKEEEMRQMFVQRVKEKEAELKEAEKELHEKFDRLKKLHQEEKKKLEDKKKCLDEEMNAFKQRKAAAELLQSQGSQAGGSQTLKRDKEKKNNPWLCIE
For the molecule B2, the binding entry in assay [4] is “binds”.

B3: SEPT6 (endogenous, mouse testis), Q9R1T4 1-434 (protein)
chain: MAAADIARQVGEDCRTVPLAGHVGFDSLPDQLVNKSVSQGFCFNILCVGETGLGKSTLMDTLFNTKFEGEPATHTQPGVQLQSNTYDLQESNVGLKLTIVSTVGFGDQINKEDSYKPIVEFIDAQFEAYLQEELKIRRVLHSYHDSRIHVCLYFIAPTGHSLKSLDLVTMKKLDSKVNIIPVIAKSDAISKSELAKFKIKITSELVSNGVQIYQFPTDDESVSEINGTMNAHLPFAVVGSTEEVKIGNKMMRARQYPWGTVQVENEAHCDFVKLREMLIRVNMEDLREQTHARHYELYRRCKLEEMGFKDTDPDSKPFSLQETYEAKRNEFLGELQKKEEEMRQMFVQRVKEKEAELKEAEKELHEKFDRLKKLHQEEKKKLEDKKKCLDEEMNAFKQRKAAAELLQSQGSQAGGSQTLKRDKEKKNNPWLCIE
B3: in assay [5], the binding entry is on record as “binds”.

B4: FLAG-SEPT7 (protein, UniProt Q16181 1-437)
chain: MSVSARSAAAEERSVNSSTMVAQQKNLEGYVGFANLPNQVYRKSVKRGFEFTLMVVGESGLGKSTLINSLFLTDLYSPEYPGPSHRIKKTVQVEQSKVLIKEGGVQLLLTIVDTPGFGDAVDNSNCWQPVIDYIDSKFEDYLNAESRVNRRQMPDNRVQCCLYFIAPSGHGLKPLDIEFMKRLHEKVNIIPLIAKADTLTPEECQQFKKQIMKEIQEHKIKIYEFPETDDEEENKLVKKIKDRLPLAVVGSNTIIEVNGKRVRGRQYPWGVAEVENGEHCDFTILRNMLIRTHMQDLKDVTNNVHYENYRSRKLAAVTYNGVDNNKNKGQLTKSPLAQMEEERREHVAKMKKMEMEMEQVFEMKVKEKVQKLKDSEAELQRRHEQMKKNLEAQHKELEEKRRQFEDEKANWEAQQRILEQQNSSRTLEKNKKKGKIF
For B4, the binding entry in assay [1], in assay [2] and in assay [3] was “binds” in each case.

B5: SEPT2 (endogenous, NT2/D1 cells) (protein, UniProt Q15019-1 1-361)
chain: MSKQQPTQFINPETPGYVGFANLPNQVHRKSVKKGFEFTLMVVGESGLGKSTLINSLFLTDLYPERVIPGAAEKIERTVQIEASTVEIEERGVKLRLTVVDTPGYGDAINCRDCFKTIISYIDEQFERYLHDESGLNRRHIIDNRVHCCFYFISPFGHGLKPLDVAFMKAIHNKVNIVPVIAKADTLTLKERERLKKRILDEIEEHNIKIYHLPDAESDEDEDFKEQTRLLKASIPFSVVGSNQLIEAKGKKVRGRLYPWGVVEVENPEHNDFLKLRTMLITHMQDLQEVTQDLHYENFRSERLKRGGRKVENEDMNKDQILLEKEAELRRMQEMIARMQAQMQMQMQGGDGDGGALGHHV
Regarding B5, the binding result in assay [1] and in assay [2] was “binds” throughout.

B6: SEPT2 (endogenous, mouse testis) (protein, UniProt P42208 1-361)
chain: MSKQQPTQFINPETPGYVGFANLPNQVHRKSVKKGFEFTLMVVGESGLGKSTLINSLFLTDLYPERIIPGAAEKIERTVQIEASTVEIEERGVKLRLTVVDTPGYGDAINCRDCFKTIISYIDEQFERYLHDESGLNRRHIIDNRVHCCFYFISPFGHGLKPLDVAFMKAIHNKVNIVPVIAKADTLTLKERERLKKRILDEIEEHSIKIYHLPDAESDEDEDFKEQTRLLKASIPFSVVGSNQLIEAKGKKVRGRLYPWGVVEVENPEHNDFLKLRTMLITHMQDLQEVTQDLHYENFRSERLKRGGRKVENEDMNKDQILLEKEAELRRMQEMIARMQAQMQMQMQGGDSDSGALGQHV
On to B6, for which the binding result in assay [4] was “binds”.

B7: SEPT7 (endogenous, mouse testis) (protein, UniProt O55131 1-436)
chain: MSVSARSAAAEERSVNCGTMAQPKNLEGYVGFANLPNQVYRKSVKRGFEFTLMVVGESGLGKSTLINSLFLTDLYSPEYPGPSHRIKKTVQVEQSKVLIKEGGVQLLLTIVDTPGFGDAVDNSNCWQPVIDYIDSKFEDYLNAESRVNRRQMPDNRVQCCLYFIAPSGHGLKPLDIEFMKRLHEKVNIIPLIAKADTLTPEECQQFKKQIMKEIQEHKIKIYEFPETDDEEENKLVKKIKDRLPLAVVGSNTIIEVNGKRVRGRQYPWGVAEVENGEHCDFTILRNMLIRTHMQDLKDVTNNVHYENYRSRKLAAVTYNGVDNNKNKGQLTKSPLAQMEEERREHVAKMKKMEMEMEQVFEMKVKEKVQKLKDSEAELQRRHEQMKKNLEAQHKELEEKRRQFEEEKANWEAQQRILEQQNSSRTLEKNKKKGKIF
Consider B7, for which the binding entry in assay [6] is “binds”.

Values taken from publication PMC5386304.
